The list shows a part of the results.

Experimental findings from PMC7819943, “Rice protein-binding microarrays: a tool to detect cis-acting elements near promoter regions in rice” are described below.

This assay has as its target T1, OsSMF1 (Oryza sativa, UniProt Q6ZLB0 1-436).
T1 sequence: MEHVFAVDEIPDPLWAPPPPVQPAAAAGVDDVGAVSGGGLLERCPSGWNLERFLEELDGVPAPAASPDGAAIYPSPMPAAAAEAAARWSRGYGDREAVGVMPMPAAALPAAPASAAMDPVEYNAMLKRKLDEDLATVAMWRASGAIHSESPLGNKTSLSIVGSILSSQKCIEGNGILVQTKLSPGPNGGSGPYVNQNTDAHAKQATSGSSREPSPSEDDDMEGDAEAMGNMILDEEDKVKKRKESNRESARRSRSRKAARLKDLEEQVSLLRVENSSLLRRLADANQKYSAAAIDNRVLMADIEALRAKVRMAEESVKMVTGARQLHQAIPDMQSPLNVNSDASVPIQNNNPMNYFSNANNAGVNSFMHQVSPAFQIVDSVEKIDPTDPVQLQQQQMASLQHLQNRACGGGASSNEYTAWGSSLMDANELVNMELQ
Kind of assay: protein-binding microarray (RPBM); PBS, 2% BSA, 51.3 ng/ul salmon testes DNA, 50 uM zinc acetate, 200 nM TF, 25 C, 1 h; high values mean tight binding. Conditions: protein: recombinant; tags: N-terminal polyhistidine and DsRed monomer fusion (pET32a); chain copies: 2; label: CyDye5-dUTP incorporated in the synthesized complementary strand; 3' TTTTT single-stranded linker to array surface; dsDNA, one strand shown. A digest of the protocol: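 Transcription factors were made in E. coli BL21-CodonPlus as N-terminal fusions to a polyhistidine tag and DsRed, then purified on Ni–NTA. After primer extension with Cy5-dUTP and blocking with 2% BSA, a custom Agilent array was exposed for 1 h at 25 °C to 200 nM protein in PBS, 2% BSA, salmon testes DNA and 50 µM zinc acetate. Washed arrays were scanned on an Axon 4000B, and the binding signal is per-feature fluorescence intensity in arbitrary units.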
Turning to “ATGAAGACGTGCCAGGTACAAGTGCTGATGAAGAACAGCTCGGAGTCACCTAGTGCAG”, the binding signal is 3420 fluorescence intensity (a.u.). As for “CGCCGTGAGTTGGTCCAGCGCGAAGCCGTCGCAGATGTGGCGGAGTCACCTAGTGCAG”, the binding signal was 3780 fluorescence intensity (a.u.).

Consider “GCAATTGCAAAGAGCTCAGTTACGTATGAAACACAAAGCTCGGAGTCACCTAGTGCAG”, for which the binding signal was 3310 fluorescence intensity (a.u.). The figure for “ACCAGTACGCATAGCATCATGTTGTTCCTGTGAAAGCATCCGGAGTCACCTAGTGCAG” is 3460 fluorescence intensity (a.u.); for “CCATTCGTCTCCACACGAGCATGAGGGCGCAGACGTCTCACGGAGTCACCTAGTGCAG” it is 3260 fluorescence intensity (a.u.). As for “ATAACAATTCAGATCCTCTGTTGACATGTGGAGCCGAGGGCGGAGTCACCTAGTGCAG”, the binding signal is 34100 fluorescence intensity (a.u.). As for “GTCTCGCTCACGCAGTCACCCGCACGCGTGGCGCCCACTCCGGAGTCACCTAGTGCAG”, the binding signal is 3840 fluorescence intensity (a.u.).

Regarding “GTAATACCTCTGCTTTTAATATATATGACGCTATTAATTTCGGAGTCACCTAGTGCAG”, the binding signal is 3750 fluorescence intensity (a.u.). On to “CATTCCGTTTTACAACTCTGTCTATATATTGCGTGTAGCTCGGAGTCACCTAGTGCAG”, for which the binding signal was 3160 fluorescence intensity (a.u.). The figure for “GGTAGATGTGTAGCAAATCCAAAATAAAATCCACGAGGCACGGAGTCACCTAGTGCAG” is 3630 fluorescence intensity (a.u.); for “TCACGGTCACCTGGGATGCCGGGACCCACCCTTGTCATCGCGGAGTCACCTAGTGCAG” it is 3350 fluorescence intensity (a.u.); for “CGCCGTCACCGACGCGTGGGCCCGGGGTGGCTGTCCCCACCGGAGTCACCTAGTGCAG” it is 3660 fluorescence intensity (a.u.). With “AAACGGGCTGACTCATCATCACTCATCCAATTCCCATCCCCGGAGTCACCTAGTGCAG” the figure was 15100 fluorescence intensity (a.u.); with “AGCTCACCGCATTGTAAAGGCCCTTACTAATCTTAGCAAGCGGAGTCACCTAGTGCAG”, 40300 fluorescence intensity (a.u.).

“TGAGTCCGTTTCCATACGCGCCATTGCACGTCACTGCGATCGGAGTCACCTAGTGCAG”: the binding signal was 23800 fluorescence intensity (a.u.). “AAACTCGACGCGACGTGGCAGGACGACTCACGATGAGCCGCGGAGTCACCTAGTGCAG”: the binding signal is 6500 fluorescence intensity (a.u.).

Turning to “AAACGGCTTATATGTCACCAGTTACACTGGCCAGTACCTCCGGAGTCACCTAGTGCAG”, the binding signal was 3680 fluorescence intensity (a.u.). “TCCGTCGCGATTCGCCACCTCGCCCTCGTCTCGTTTTAGCCGGAGTCACCTAGTGCAG”: the binding signal is 3450 fluorescence intensity (a.u.). On to “GAAAAGTACACGTCACGTCCATGTGGTATTGCCACATCAGCGGAGTCACCTAGTGCAG”, for which the binding signal was 39000 fluorescence intensity (a.u.). Regarding “TATATTTGTGGATGTGTTCTAGTGTTCTAACGGATGATGGCGGAGTCACCTAGTGCAG”, the binding signal is 7880 fluorescence intensity (a.u.). The figure for “GCAACATGATGCTCCACCGCAACCTCGGCAACCTCAATGCCGGAGTCACCTAGTGCAG” is 3160 fluorescence intensity (a.u.); for “AAAGAGTGATGACGTGGTATATGACACGTGGATCTCACGCCGGAGTCACCTAGTGCAG” it is 28100 fluorescence intensity (a.u.). Consider “GATCGAGCGGCAGGCCAGCAGTAACCTGGCCGAGAAGTTGCGGAGTCACCTAGTGCAG”, for which the binding signal is 64500 fluorescence intensity (a.u.).
